# Values of other authors in publication PMC7690861, “Topical Administration of Cannabidiol: Influence of Vehicle-Related Aspects on Skin Permeation Process” (Pharmaceuticals, 2020).
# Parameters: method as in PMID 30534073
# Conditions: after gastrointestinal intake; ref [5]; cited from earlier work
structure (smiles),measurement,value
"C=C(C)[C@@H]1CCC(C)=C[C@H]1c1c(O)cc(CCCCC)cc1O [CBD, Cannabidiol]",Bioavailability,13–19%
